The values below come from the supplement of paper PMC12067093, “Discovery and optimisation of a covalent ligand for TRIM25 and its application to targeted protein ubiquitination” (Chemical Science, 2025).

Amino acid sequences for entries named in this document (tags omitted). A change or cut given only in a name is not applied to a line headed by its entry.
UniProt P41226: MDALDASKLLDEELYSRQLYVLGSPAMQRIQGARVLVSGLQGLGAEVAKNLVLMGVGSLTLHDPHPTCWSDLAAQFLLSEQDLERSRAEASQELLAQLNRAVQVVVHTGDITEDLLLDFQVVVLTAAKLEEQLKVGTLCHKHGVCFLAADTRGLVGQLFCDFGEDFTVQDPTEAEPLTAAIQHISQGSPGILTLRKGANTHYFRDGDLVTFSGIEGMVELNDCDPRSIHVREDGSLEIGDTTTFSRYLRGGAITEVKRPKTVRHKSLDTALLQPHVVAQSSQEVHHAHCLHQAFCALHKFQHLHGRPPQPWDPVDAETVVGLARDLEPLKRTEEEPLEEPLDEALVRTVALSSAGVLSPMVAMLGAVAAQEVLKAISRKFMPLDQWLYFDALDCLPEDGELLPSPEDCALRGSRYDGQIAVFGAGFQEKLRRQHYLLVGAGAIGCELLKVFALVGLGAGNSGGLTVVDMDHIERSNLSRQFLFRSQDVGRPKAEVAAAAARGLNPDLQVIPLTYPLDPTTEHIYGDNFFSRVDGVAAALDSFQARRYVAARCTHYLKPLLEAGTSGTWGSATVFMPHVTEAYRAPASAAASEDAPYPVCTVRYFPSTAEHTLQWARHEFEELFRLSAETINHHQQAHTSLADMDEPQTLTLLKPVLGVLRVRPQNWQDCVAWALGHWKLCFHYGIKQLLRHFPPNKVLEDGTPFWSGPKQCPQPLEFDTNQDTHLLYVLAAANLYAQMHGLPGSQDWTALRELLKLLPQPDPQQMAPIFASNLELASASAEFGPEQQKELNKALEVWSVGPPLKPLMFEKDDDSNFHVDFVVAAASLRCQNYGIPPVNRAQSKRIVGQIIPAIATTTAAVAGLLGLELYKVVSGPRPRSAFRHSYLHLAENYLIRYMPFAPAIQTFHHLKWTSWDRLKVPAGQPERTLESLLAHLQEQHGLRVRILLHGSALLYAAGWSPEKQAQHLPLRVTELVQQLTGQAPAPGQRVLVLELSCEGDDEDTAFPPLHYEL
UniProt Q3KQV9: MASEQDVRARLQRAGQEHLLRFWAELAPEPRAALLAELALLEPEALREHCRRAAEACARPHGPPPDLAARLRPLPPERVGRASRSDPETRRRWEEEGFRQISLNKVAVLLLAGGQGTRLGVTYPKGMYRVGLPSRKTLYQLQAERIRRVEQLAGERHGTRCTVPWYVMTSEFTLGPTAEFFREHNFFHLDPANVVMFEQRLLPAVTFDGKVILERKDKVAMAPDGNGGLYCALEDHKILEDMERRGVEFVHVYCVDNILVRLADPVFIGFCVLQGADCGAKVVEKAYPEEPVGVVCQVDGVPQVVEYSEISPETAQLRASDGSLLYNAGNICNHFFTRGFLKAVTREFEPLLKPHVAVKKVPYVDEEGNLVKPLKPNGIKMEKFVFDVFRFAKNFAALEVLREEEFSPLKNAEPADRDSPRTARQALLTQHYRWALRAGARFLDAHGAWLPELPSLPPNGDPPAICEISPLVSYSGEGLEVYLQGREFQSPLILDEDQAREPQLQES
UniProt O15042: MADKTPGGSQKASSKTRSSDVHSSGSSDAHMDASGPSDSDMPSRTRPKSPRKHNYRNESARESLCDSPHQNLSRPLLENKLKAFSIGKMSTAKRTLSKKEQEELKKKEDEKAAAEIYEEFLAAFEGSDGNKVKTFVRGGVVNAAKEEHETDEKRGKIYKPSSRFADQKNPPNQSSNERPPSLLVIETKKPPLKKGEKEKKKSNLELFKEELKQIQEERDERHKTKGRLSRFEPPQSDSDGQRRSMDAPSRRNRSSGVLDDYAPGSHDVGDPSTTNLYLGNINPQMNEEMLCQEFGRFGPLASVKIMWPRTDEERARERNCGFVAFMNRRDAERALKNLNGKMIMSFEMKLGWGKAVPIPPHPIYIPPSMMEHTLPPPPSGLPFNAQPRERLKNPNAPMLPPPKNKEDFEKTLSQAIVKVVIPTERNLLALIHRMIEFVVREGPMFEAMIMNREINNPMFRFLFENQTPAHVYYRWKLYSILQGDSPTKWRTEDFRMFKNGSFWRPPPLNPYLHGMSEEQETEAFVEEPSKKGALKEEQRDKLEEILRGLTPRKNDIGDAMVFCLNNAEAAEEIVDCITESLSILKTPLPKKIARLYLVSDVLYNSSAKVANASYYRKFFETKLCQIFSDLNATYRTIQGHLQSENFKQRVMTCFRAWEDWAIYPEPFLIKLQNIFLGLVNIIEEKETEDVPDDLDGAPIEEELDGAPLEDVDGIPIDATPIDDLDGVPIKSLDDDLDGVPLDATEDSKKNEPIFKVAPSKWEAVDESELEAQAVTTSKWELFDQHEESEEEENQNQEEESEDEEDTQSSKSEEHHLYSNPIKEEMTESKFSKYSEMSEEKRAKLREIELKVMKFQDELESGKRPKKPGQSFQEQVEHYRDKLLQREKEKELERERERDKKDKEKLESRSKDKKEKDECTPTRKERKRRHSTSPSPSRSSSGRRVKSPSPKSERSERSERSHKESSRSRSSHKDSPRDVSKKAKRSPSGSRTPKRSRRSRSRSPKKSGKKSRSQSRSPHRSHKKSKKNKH
UniProt O95071: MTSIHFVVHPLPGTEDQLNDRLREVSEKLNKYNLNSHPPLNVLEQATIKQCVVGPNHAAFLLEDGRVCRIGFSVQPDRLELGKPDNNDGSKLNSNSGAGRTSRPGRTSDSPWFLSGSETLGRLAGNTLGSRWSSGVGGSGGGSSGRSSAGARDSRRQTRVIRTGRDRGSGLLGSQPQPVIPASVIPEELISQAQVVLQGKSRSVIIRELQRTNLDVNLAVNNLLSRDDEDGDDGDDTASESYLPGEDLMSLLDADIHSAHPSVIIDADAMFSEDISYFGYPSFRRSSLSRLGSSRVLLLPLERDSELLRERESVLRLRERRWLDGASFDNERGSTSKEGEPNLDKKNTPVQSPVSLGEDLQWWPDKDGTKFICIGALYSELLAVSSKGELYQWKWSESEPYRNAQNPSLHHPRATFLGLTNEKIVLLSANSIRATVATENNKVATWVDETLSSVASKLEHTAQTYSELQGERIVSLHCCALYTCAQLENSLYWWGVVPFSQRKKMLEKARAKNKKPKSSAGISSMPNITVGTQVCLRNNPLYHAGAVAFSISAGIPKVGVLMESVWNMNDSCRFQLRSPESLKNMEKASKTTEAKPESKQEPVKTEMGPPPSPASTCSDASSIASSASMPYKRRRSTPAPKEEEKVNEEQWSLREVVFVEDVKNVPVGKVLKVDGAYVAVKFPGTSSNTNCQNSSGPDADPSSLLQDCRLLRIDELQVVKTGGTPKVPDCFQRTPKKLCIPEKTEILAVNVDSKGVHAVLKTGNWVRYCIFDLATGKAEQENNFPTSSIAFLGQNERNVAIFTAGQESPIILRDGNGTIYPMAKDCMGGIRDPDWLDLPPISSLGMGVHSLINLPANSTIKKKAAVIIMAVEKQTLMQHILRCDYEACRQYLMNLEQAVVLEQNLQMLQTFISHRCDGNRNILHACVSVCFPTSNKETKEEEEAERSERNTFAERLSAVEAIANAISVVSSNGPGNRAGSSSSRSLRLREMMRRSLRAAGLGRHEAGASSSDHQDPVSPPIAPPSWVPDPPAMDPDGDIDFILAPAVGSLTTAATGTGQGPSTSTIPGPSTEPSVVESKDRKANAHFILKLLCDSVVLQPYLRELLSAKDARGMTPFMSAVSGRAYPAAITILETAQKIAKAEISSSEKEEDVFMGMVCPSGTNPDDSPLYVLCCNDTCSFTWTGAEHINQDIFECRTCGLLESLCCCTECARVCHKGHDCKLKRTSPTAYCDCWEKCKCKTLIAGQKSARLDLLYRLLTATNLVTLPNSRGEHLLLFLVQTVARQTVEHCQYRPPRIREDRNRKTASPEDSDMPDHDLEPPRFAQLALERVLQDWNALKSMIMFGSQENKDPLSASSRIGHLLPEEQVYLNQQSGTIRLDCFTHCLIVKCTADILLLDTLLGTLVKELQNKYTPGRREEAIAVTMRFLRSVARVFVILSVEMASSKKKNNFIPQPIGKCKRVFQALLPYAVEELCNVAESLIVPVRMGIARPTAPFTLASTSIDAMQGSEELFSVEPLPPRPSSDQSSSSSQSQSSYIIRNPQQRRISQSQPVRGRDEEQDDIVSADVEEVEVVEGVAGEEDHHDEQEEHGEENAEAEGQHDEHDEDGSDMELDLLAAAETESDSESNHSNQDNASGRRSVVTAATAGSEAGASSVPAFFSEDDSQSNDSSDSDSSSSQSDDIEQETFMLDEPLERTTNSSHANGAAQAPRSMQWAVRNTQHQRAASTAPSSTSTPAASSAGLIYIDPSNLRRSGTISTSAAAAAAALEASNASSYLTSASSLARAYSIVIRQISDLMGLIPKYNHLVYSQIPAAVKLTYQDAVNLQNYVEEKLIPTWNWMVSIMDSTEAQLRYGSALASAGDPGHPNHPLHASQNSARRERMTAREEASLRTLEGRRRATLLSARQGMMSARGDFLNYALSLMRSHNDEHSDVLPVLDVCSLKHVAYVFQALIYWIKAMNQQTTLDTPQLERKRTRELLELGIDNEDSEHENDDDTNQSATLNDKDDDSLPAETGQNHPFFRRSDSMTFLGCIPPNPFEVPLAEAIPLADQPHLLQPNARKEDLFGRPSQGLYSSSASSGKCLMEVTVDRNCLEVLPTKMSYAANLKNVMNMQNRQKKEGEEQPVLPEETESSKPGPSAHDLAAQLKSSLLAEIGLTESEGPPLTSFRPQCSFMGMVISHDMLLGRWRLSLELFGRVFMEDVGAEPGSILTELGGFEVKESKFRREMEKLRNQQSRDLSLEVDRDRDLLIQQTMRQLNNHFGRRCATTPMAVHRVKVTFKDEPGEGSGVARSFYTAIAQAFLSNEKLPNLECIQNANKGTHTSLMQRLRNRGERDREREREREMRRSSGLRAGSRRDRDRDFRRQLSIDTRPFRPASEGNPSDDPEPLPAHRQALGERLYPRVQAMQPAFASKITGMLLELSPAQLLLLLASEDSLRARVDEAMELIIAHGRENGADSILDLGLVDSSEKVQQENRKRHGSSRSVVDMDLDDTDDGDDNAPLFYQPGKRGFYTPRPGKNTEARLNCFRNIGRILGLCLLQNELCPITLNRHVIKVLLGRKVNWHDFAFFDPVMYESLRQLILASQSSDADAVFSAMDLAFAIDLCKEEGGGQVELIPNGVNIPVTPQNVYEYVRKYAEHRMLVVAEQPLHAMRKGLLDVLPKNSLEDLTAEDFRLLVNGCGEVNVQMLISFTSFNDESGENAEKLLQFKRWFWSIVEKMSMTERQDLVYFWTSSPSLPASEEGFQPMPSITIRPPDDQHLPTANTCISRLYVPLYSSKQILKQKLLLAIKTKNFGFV
UniProt Q9H832: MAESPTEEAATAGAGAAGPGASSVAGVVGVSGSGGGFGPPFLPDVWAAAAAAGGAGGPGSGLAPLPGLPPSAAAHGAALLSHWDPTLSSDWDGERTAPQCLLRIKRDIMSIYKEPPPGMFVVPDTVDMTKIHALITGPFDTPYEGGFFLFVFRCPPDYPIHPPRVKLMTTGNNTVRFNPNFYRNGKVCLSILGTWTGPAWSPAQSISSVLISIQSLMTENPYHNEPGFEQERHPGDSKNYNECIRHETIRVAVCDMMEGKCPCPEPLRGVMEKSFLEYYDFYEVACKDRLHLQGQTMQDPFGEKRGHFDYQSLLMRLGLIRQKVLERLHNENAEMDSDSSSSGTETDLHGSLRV
UniProt Q13404: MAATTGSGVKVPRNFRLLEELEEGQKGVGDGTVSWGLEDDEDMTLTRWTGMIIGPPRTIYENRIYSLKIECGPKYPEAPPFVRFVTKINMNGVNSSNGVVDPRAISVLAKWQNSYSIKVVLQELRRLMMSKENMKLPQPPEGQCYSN
UniProt P10599: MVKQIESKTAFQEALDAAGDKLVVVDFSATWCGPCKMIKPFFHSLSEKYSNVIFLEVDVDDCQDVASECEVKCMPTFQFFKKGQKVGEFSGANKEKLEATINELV

Compound in the assay: CC1Cc2ccccc2N1C(=O)C1CCCN(C1)C(=O)CCl (mixture of isomers) [TRIM25 ligand 11 (diastereomer mixture)]
The assay can be described thus: probe-labelled cysteine peptide fold change vs DMSO (competition) (log2 fold change); higher = less target engagement (more negative = stronger competition). The following applies: THP-1, incubation time: 4 h.

The list shows a part of the results.
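Further: competitive chemoproteomic profiling in live THP-1 cells with an iodoacetamide desthiobiotin (IA-DTB) probe, comparing probe-labelled peptide intensities in compound-treated cells against DMSO-treated controls.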

With “UBA7_P41226_223_DGDLVTFSGIEGMVELNDCDPR (UniProt P41226)”, the “probe-labelled cysteine peptide fold change” value by setting is: (10 µM) 0.000986; (50 µM) 0.0382.
The like results for “UBR4_Q5T4S7_4146_QAACTIVEALATIPSRK (UniProt Q5T4S7)” were, in that order, -0.0666 and 0.0515.
The corresponding values for UBA6_A0AVT1_682_IQSGHSLEGCFQVIK are 0.146 and 0.189.
Regarding “UAP1L1_Q3KQV9_254_GVEFVHVYCVDNILVR (UniProt Q3KQV9)”, the “probe-labelled cysteine peptide fold change” value reads like this: (10 µM) -0.0722; (50 µM) 0.0567.
For the target “U2SURP_O15042_65_ESLCDSPHQNLSR (UniProt O15042)”, the “probe-labelled cysteine peptide fold change” value reads like this: (10 µM) 0.0928; (50 µM) 0.0959.
The like results for “UBR5_O95071_1382+1386_LDCFTHCLIVK (UniProt O95071)” were, in that order, 0.374 and 0.564.
The corresponding values for “UBE2Z_Q9H832_243_NYNECIR (UniProt Q9H832)” are -0.049 and -0.0648.
The like results for “UBE2V1_Q13404_71_IECGPKYPEAPPFVR (UniProt Q13404)” were, in that order, -0.243 and 0.115.
On to “TXN_P10599_32_LVVVDFSATWCGPCK (UniProt P10599)”, for which the “probe-labelled cysteine peptide fold change” value (10 µM) was -0.17 and the “probe-labelled cysteine peptide fold change” value (50 µM) was -0.358.
The like results for “UBA7_P41226_145_HGVCFLAADTR (UniProt P41226)” were, in that order, 0.0658 and 0.179.
